Values quoted from earlier work in patent US9170257B2 (priority 2012, dated 2015).
At least one structure is not confirmed: it was looked up by name or label, or the drawing left a doubt.

Legend:
[1] = tested on: MPTP-induced depletion of DA and DOPAC; conditions: 60 mg/kg i.p.; cited from earlier work
[2] = tested on: human HL-60 promyelocytic leukemia cells; conditions: HL-60 cells; cited from earlier work

COc1cc(CCC(=O)CC(=O)CCc2ccc(O)c(OC)c2)ccc1O [THC, tetrahydrocurcumin]
MPTP-induced depletion of DA and DOPAC [1]: significantly reversed | Cell death [2]: induced autophagic cell death | sub-G1 cell population (flow cytometry) [2]: did not increase
